According to patent US20250060373A1, “NOVEL ASSAY AND NOVEL METHODS OF TREATING HUTCHINSON-GILFORD PROGERIA SYNDROME” (The Progeria Research Foundation, priority 2021, published 2025):

Tested on: progerin
Test: Lonafarnib Interference Assay (exogenous lonafarnib spiked into HGPS plasma, SMC Progerin Immunoassay)
Design: species or system human
Conditions: HGPS plasma spiked with 7.92 μg/mL lonafarnib in DMSO (3×Cmax) vs DMSO control; p=0.198

NC(=O)N1CCC(CC(=O)N2CCC([C@H]3c4ncc(Br)cc4CCc4cc(Cl)cc(Br)c43)CC2)CC1 [lonafarnib] was tested, and the “Effect of lonafarnib spike on mean progerin reading” value was “unaffected”.
